These are yes or no findings as the source states them, for the method shown. Binding seen in cells or lysates may run through a third protein. Here binding means that the protein was enriched with, or labelled near, the bait; the list need not be complete.
Tests used:
[1] = biological target: TAP-ZC3H41 (Trypanosoma brucei) (UniProt Q386W1); assay: affinity purification with mass spectrometry; tandem affinity purification as above, cell lysate treated with a mixture of RNases A and T1
[2] = biological target: TAP-ZC3H41 (Trypanosoma brucei) (UniProt Q386W1); assay: affinity purification with mass spectrometry; tandem affinity purification (TAP) from 1-2 x 10^10 procyclic T. brucei cells expressing the TAP-tagged bait; SDS-PAGE, SYPRO staining, bands identified by MALDI-TOF/TOF

Chains of the proteins cited; added tags and fusions are not shown. Lines headed by an entry give the natural chain unless they say otherwise; changes in a name come on top.
UniProt Q386W1: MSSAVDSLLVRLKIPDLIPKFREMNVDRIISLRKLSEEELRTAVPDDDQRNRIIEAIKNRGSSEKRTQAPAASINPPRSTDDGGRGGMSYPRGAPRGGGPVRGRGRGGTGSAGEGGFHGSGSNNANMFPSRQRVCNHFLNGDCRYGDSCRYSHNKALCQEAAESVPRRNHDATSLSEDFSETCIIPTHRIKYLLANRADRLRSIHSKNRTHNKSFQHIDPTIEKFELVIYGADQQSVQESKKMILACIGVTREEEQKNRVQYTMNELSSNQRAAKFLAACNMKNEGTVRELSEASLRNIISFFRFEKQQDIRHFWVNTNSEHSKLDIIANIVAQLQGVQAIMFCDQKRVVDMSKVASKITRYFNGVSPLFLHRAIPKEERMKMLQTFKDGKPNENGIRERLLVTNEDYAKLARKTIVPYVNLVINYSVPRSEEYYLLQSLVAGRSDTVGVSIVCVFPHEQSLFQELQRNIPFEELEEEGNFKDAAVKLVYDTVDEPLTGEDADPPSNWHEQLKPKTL
UniProt Q57TY3: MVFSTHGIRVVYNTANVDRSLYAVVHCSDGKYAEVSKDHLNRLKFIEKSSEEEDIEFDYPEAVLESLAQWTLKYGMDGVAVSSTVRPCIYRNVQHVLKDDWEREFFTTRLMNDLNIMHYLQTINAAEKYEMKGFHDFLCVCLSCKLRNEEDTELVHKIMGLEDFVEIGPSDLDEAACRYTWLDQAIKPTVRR

binding [1]: binds
binding [2]: binds
Substance: ZC3H41-associated protein (Z41AP), endogenous (from UniProt Q57TY3)

From publication PMC10064699
